# In ChEMBL document CHEMBL1150108, “Isolation of S-n-butylcysteine sulfoxide and six n-butyl-containing thiosulfinates from Allium siculum” (2002):
# Assays:
# Assay type in all cases: functional
# Pseudomonas aeruginosa = assay: Antibacterial activity against Pseudomonas aeruginosa ATCC 27853 at 10 ug/disk after overnight incubation by agar diffusion test
# Method in brief: (§1)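 Disk diffusion on agar plates seeded with the named strain. Test samples were dissolved in EtOH, and a 10 µL aliquot was applied to a 6 mm paper disk to give 10, 250 or 500 µg per disk. Commercial antibiotic disks served as controls. Plates were incubated overnight at 37 °C, and the diameter of the inhibition zone around each disk was read in mm.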
# Escherichia coli = assay: Antibacterial activity against Escherichia coli ATCC 25922 at 10 ug/disk after overnight incubation by agar diffusion test; method in brief: as §1
# Staphylococcus aureus = assay: Antibacterial activity against Staphylococcus […] at 10 ug/disk after overnight incubation by agar diffusion test; method in brief: as §1
sequence,measurement,setting,value
GENTAMICIN,inhibition zone (IZ),Pseudomonas aeruginosa,18 mm
same,inhibition zone (IZ),Escherichia coli,18 mm
same,inhibition zone (IZ),Staphylococcus aureus,22 mm
